In this experiment the target is T1, human ASBT (Homo sapiens, UniProt Q12908).
T1 sequence (Q12908 1-348): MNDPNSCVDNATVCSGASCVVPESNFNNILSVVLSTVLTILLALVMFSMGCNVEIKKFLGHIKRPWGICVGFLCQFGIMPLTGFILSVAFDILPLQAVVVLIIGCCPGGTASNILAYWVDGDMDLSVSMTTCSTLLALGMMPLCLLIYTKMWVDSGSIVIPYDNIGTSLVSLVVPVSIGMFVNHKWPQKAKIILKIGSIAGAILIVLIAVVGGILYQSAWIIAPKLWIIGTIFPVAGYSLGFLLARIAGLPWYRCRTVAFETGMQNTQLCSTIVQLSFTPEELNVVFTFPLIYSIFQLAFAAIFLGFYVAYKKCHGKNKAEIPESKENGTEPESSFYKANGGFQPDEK
Format: cell-based. As to conditions: read-out: Estimated Ki for ASBT.

Our source for the potency estimated from few doses values is paper PMC3617406 (Molecular pharmaceutics, 2013).

Regarding `COC(=O)C1=C(C)NC(C)=C(C(=O)OC)C1c1ccccc1[N+](=O)[O-]` [Nifedipine], the potency estimated from few doses is 89.9 ± 34 µM.
